Laboratory results: patent US10544131B2, “MCL-1 antagonists” (The Regents of the University of California, priority 2014, dated 2020)
At least one structure is not confirmed: it was looked up by name or label, or the drawing left a doubt.

System: Mcl-1/Bak PPI
Test: liposome functional assay for Mcl-1/Bak (calcein release, MOMP model)
Type: biochemical
Conditions: in words
Excerpt: The Shore lab has developed a functional assay utilizing recombinant proteins anchored in artificial liposomes that enables the evaluation of small-molecules to disrupt the Mcl-1/Bak PPI (FIG. 2A). In this assay, full-length functional single cysteine mutants of Mcl-1 and Bak were anchored into lipids (with PE's) utilizing the engineered cysteine residues as a handle. This allows Applicants to recapitulate Bak-mediated mitochondrial permeabilization and measure the various protein-protein and protein-membrane interactions involved in Mcl-1 regulation of Bak. The release of calcenin (Cn) dye encapsulated in the liposome was used to quantify membrane permeabilization. When the system is untreated, Mcl-1 sequesters Bak by engaging its BH3 domain. Incubation with an active inhibitor neutralizes Mcl-1. […] By measuring UV emission from Cn, Applicants can quantify antagonism of Mcl-1 in real time.
Synthetic 3, along with numerous intermediates and their derivatives were assayed in a model system for mitochondrial outer membrane permeabilization (MOMP). […] Applicants' assay mimics these events using recombinant, lipidated Mcl-1 and Bak that are constitutively bound to unilamellar liposomes encapsulating calcein dye. tBid addition initiates Bak homo oligomerization and pore formations, which in turn results in calcein release and a fluorescence signal. […]

## COC1=CC(c2cc3ccccc3[nH]2)=N/C1=C\c1[nH]c(C)cc1C [obatoclax, reference compound]
  antagonism of Mcl-1 / Bak-mediated permeabilization of liposomal membranes: counter Mcl-1 activity and promote Bak-mediated permeabilization of liposomal membranes
